Measured values from the supplement of paper PMC10849652.
This is one part of the list.

Protein sequences, listed by entry. Tags and fused reporters are not part of them. Lines headed by an entry give the natural chain unless they say otherwise; changes in a name come on top.
UniProt Q9UDW1: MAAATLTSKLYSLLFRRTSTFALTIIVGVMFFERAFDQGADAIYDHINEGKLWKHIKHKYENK
UniProt A6NIH7: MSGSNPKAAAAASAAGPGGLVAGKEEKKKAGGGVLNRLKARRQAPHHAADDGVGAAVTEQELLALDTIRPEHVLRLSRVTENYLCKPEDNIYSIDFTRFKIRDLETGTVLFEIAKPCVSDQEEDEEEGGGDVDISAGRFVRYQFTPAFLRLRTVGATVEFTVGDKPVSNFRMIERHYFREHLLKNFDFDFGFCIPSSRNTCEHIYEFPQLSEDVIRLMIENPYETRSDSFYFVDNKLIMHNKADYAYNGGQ
UniProt Q9UBK9, whole entry, looked up: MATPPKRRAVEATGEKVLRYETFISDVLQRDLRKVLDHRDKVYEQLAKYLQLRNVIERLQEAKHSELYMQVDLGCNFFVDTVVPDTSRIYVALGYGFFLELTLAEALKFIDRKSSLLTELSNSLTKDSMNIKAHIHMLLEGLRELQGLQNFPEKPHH
UniProt Q9Y5K5, whole entry, looked up: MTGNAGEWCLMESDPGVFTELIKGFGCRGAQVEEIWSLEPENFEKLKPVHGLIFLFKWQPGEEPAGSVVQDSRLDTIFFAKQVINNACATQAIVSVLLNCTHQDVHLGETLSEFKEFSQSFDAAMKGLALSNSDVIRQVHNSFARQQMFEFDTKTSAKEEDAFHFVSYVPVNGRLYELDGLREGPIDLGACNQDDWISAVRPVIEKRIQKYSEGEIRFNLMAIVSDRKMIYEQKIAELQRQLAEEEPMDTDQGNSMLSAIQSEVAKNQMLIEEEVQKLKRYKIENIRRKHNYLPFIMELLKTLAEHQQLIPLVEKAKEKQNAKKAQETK
UniProt Q96LJ8: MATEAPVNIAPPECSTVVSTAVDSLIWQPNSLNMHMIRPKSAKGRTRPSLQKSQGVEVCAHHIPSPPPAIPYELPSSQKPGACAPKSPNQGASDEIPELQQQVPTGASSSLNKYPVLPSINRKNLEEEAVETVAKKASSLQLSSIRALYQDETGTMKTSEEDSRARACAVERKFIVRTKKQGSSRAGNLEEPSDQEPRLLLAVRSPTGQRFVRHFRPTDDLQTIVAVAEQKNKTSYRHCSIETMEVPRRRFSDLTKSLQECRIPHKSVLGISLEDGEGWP
UniProt Q9NYU2: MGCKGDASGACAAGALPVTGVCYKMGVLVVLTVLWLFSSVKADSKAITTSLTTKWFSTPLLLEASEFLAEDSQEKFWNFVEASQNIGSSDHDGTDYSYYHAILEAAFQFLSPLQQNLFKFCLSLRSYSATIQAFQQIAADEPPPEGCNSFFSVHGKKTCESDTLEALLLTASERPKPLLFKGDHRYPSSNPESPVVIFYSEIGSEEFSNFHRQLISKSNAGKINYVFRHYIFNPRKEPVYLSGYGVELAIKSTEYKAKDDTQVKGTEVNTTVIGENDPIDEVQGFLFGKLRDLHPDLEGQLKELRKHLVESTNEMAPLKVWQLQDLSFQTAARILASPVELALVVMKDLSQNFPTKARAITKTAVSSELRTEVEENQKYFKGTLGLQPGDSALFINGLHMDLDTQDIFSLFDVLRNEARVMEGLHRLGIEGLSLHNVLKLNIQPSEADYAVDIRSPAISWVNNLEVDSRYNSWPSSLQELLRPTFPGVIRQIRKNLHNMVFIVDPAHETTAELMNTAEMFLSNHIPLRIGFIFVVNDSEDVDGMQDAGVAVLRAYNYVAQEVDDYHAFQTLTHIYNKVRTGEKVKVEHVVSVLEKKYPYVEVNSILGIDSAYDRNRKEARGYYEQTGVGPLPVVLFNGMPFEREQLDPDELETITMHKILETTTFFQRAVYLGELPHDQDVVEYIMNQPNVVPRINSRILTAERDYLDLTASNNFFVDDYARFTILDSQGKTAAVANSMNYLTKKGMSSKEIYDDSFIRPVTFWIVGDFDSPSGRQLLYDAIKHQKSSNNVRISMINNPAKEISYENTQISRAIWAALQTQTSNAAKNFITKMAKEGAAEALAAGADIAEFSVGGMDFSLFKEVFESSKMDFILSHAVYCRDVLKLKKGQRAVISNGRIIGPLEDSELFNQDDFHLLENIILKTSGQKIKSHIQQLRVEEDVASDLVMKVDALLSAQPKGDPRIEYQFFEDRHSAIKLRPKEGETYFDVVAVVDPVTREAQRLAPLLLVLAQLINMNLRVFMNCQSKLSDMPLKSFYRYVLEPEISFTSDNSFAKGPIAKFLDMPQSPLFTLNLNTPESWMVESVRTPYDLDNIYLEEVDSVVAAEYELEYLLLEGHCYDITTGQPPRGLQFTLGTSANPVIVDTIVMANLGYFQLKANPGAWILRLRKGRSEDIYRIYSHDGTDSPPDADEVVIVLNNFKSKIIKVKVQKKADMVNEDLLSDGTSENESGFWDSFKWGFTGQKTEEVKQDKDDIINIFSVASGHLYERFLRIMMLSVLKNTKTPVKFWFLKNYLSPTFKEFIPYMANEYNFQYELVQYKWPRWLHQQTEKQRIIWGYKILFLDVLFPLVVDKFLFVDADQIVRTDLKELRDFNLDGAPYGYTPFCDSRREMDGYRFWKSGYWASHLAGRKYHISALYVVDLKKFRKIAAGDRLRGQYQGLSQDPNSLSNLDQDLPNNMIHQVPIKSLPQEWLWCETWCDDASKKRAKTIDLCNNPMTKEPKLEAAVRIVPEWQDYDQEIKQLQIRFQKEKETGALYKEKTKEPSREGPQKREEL
UniProt Q93008, whole entry, looked up: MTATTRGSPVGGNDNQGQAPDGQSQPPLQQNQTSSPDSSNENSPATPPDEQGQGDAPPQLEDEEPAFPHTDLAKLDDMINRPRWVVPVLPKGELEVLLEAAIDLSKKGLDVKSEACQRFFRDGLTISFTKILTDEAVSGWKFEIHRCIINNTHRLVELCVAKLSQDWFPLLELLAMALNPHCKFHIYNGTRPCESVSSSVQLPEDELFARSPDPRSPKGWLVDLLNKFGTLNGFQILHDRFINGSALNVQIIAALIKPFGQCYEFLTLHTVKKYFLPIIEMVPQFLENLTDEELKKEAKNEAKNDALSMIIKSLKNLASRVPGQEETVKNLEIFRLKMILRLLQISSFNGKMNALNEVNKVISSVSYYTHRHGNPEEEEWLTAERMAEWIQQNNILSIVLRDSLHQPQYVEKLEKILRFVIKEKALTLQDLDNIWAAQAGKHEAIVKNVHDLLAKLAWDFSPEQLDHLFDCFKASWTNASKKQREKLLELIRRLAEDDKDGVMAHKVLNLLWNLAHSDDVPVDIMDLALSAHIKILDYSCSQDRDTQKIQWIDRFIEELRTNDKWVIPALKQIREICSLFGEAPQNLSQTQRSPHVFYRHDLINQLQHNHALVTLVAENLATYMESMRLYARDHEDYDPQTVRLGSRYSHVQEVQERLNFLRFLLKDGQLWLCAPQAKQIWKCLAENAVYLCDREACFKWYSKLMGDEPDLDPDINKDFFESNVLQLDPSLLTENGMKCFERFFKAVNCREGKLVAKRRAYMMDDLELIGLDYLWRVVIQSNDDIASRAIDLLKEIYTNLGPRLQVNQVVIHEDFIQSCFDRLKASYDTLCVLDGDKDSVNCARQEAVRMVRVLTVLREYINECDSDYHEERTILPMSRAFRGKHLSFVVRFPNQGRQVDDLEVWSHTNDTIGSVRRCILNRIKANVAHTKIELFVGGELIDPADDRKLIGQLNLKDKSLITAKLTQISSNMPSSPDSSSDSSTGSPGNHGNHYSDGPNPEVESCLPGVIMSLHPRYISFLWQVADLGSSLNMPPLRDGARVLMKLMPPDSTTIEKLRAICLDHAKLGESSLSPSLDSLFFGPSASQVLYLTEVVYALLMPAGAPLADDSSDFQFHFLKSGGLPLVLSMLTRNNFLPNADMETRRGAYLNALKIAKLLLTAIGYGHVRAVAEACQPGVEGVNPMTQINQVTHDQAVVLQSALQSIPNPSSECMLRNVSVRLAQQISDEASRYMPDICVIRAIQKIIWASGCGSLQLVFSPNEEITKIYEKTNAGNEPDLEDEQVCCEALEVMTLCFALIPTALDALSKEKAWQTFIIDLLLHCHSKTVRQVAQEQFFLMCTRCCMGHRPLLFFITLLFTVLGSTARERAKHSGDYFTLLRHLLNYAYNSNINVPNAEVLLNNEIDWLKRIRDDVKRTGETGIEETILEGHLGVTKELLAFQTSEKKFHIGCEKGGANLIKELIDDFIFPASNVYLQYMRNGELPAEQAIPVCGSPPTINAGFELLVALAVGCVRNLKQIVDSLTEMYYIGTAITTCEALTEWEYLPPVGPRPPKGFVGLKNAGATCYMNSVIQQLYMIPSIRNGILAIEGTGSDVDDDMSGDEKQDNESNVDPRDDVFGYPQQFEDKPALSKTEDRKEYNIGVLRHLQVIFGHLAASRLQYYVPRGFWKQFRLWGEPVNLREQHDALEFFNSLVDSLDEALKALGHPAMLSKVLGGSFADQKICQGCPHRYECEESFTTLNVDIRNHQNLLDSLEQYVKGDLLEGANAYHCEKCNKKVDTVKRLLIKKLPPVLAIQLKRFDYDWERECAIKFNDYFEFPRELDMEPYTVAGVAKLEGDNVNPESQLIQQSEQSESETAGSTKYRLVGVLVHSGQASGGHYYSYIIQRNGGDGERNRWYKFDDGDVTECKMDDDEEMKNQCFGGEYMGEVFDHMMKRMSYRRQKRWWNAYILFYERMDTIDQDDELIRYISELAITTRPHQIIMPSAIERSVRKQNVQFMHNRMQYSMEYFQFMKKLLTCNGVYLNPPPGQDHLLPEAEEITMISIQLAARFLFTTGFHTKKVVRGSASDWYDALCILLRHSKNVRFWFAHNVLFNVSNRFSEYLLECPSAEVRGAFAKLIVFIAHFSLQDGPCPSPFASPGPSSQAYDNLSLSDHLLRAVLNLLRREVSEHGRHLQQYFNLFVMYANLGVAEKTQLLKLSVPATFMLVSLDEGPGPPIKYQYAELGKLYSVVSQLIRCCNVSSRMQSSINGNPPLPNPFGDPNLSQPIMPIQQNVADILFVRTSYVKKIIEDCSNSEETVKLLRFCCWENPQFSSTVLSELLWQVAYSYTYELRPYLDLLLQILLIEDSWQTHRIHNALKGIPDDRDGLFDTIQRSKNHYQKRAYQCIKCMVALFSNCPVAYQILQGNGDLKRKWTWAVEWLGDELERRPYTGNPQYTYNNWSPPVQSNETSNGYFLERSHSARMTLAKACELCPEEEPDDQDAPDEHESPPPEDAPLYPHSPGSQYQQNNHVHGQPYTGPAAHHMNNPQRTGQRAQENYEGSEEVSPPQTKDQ
UniProt Q7Z6J8: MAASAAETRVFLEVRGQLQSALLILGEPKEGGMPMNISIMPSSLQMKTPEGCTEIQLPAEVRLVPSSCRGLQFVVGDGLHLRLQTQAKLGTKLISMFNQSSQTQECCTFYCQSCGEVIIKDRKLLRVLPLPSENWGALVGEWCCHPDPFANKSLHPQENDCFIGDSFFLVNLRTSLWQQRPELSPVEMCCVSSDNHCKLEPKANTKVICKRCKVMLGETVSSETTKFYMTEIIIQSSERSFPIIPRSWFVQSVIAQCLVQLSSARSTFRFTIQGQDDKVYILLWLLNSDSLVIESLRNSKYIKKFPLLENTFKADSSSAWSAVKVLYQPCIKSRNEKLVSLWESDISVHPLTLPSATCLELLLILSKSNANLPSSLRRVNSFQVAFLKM
UniProt P61960, whole entry, looked up: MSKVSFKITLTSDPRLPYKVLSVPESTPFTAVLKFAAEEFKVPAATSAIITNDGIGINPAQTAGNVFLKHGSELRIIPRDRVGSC

Experiments:
Experiment in all cases: log2 fold change, soluble protein after heating vs DMSO (PISA); higher = thermal stabilisation; K562 cells, 10 uM, 30 min; active = over 0.2 and 3.5 SD of the protein, either way, in both replicates (recomputed)
saracatinib = compound: CN1CCN(CCOc2cc(OC3CCOCC3)c3c(Nc4c(Cl)ccc5c4OCO5)ncnc3c2)CC1 [saracatinib]
How it was run: (§1)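 Quantification of soluble protein used TMTpro 16plex LC-MS/MS, with channel sums equalised. Samples were the supernatant after 21,000xg for 90 min of pooled aliquots from K562 cells (2×10^6 cells/mL) treated with 10 μM compound for 30 min, heated for 3 min over 48°C-58°C, and extracted in PBS with 0.5% NP-40 at 4°C. Values, from duplicates, describe thermal stability against control samples on a log2 fold-change scale.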

sotrastaurin = compound: CN1CCN(c2nc(C3=C(c4c[nH]c5ccccc45)C(=O)NC3=O)c3ccccc3n2)CC1 [sotrastaurin]
How it was run: as §1

alvocidib = compound: CN1CC[C@H](c2c(O)cc(O)c3c(=O)cc(-c4ccccc4Cl)oc23)[C@H](O)C1 [alvocidib]
How it was run: as §1

[1] = compound: CNC(=O)C1=CC=CC=C1NC2=NC(=NC=C2Cl)NC3=C(C=C(C=C3)N4CCOCC4)OC
How it was run: as §1

defactinib = compound: CNC(=O)c1ccc(Nc2ncc(C(F)(F)F)c(NCc3nccnc3N(C)S(C)(=O)=O)n2)cc1 [defactinib]
How it was run: as §1

rucaparib = compound: CNCc1ccc(-c2[nH]c3cc(F)cc4c3c2CCNC4=O)cc1 [rucaparib]
How it was run: as §1

[2] = compound: CNc1nc(-c2ccc3c(N)n[nH]c3c2)cc(N2C[C@@H](C(=O)NC3CCCCC3)CC[C@H]2C)n1
How it was run: as §1

encorafenib = compound: COC(=O)N[C@@H](C)CNc1nccc(-c2cn(C(C)C)nc2-c2cc(Cl)cc(NS(C)(=O)=O)c2F)n1 [encorafenib]
How it was run: as §1

[3] = compound: COC(=O)[C@H](CCSC)NC(=O)C1=C(C=C(C=C1)NC[C@H](CS)N)C2=CC=CC=C2
How it was run: as §1

Tubastatin A = compound: CN1CCc2c(c3ccccc3n2Cc2ccc(C(=O)NO)cc2)C1 [Tubastatin A]
How it was run: as §1

Measured: log2 fold change

USP20 (UniProt Q9Y2K6)
inactive: saracatinib -0.073 | sotrastaurin 0.088 | alvocidib 0.135 | [1] -0.051 | defactinib -0.084 | rucaparib 0.104 | [2] 0.087 | encorafenib 0.248 | [3] 0.054

UQCR10 (UniProt Q9UDW1)
inactive: saracatinib 0.001 | sotrastaurin 0.121 | Tubastatin A -0.103 | [1] 0.018 | defactinib 0.039 | rucaparib -0.063 | [2] 0.018 | encorafenib 0.001 | [3] -0.031

USP3 (UniProt Q9Y6I4)
inactive: saracatinib 0.16 | sotrastaurin 0.074 | Tubastatin A -0.181 | [1] -0.118 | defactinib -0.205 | rucaparib 0.042 | [2] 0.155 | encorafenib -0.008 | [3] -0.092

URM1 isoform 2 (UniProt Q9BTM9)
inactive: saracatinib 0.203 | sotrastaurin 0.084 | Tubastatin A -0.111 | [1] -0.051 | defactinib -0.045 | rucaparib 0.014 | [2] -0.212 | encorafenib -0.107 | [3] 0.015

UTP14A (UniProt Q9BVJ6)
inactive: saracatinib -0.023 | sotrastaurin -0.017 | Tubastatin A 0.163 | [1] 0.024 | defactinib 0.055 | rucaparib 0.15 | [2] 0.066 | encorafenib 0.124 | [3] 0.021

UNC119B (UniProt A6NIH7)
inactive: saracatinib -0.076 | sotrastaurin 0.013 | Tubastatin A 0.124 | [1] -0.031 | defactinib -0.064 | rucaparib 0.133 | [2] 0.316 | encorafenib 0.026 | [3] -0.048

UNC93B1 (UniProt Q9H1C4)
inactive: saracatinib -0.011 | sotrastaurin 0.214 | alvocidib 0.057 | [1] 0.115 | rucaparib -0.238 | [2] 0.039 | encorafenib -0.046

UTP3 (UniProt Q9NQZ2)
inactive: saracatinib 0.232 | sotrastaurin -0.1 | Tubastatin A 0.067 | [1] 0.094 | defactinib 0.104 | rucaparib 0.238 | [2] -0.106 | encorafenib 0.23 | [3] 0.051

UBR1 (UniProt Q8IWV7)
inactive: saracatinib -0.145 | sotrastaurin 0.128 | alvocidib -0.103 | [1] -0.02 | [2] -0.034

UXT isoform 2 (UniProt Q9UBK9)
inactive: saracatinib 0.031 | sotrastaurin -0.056 | Tubastatin A 0.077 | [1] -0.191 | defactinib 0 | rucaparib 0.049 | [2] -0.027 | encorafenib -0.018 | [3] -0.078

UBE4B isoform 4 (UniProt O95155)
inactive: saracatinib 0.018 | sotrastaurin -0.038 | Tubastatin A 0.016 | [1] 0.02 | defactinib -0.071 | rucaparib -0.077 | [2] -0.058 | encorafenib 0.01 | [3] -0.001

VAMP7 (UniProt P51809)
inactive: saracatinib 0.029 | sotrastaurin 0.012 | Tubastatin A -0.001 | [1] 0.03 | defactinib -0.028 | rucaparib -0.027 | [2] -0.022 | encorafenib 0.029 | [3] -0.011

USP48 isoform 8 (UniProt Q86UV5)
inactive: saracatinib -0.037 | sotrastaurin -0.403 | Tubastatin A 0.197 | [1] 0.016 | defactinib -0.462 | rucaparib -0.085 | [2] -0.044 | encorafenib 0.065 | [3] -0.081

UCHL5 (UniProt Q9Y5K5)
inactive: saracatinib -0.044 | sotrastaurin -0.057 | Tubastatin A 0.148 | [1] 0.013 | defactinib -0.107 | rucaparib 0.074 | [2] -0.001 | encorafenib 0.091 | [3] -0.028

UBXN10 (UniProt Q96LJ8)
inactive: saracatinib 0.111 | sotrastaurin 0.122 | Tubastatin A 0.036 | [1] -0.152 | defactinib 0.254 | rucaparib -0.05 | [2] -0.049 | encorafenib -0.074 | [3] 0.014

UBLCP1 (UniProt Q8WVY7)
inactive: saracatinib 0.036 | sotrastaurin -0.032 | Tubastatin A 0.147 | [1] 0.027 | defactinib -0.016 | rucaparib -0.068 | [2] -0.038 | encorafenib 0.088 | [3] -0.034

USP7 (UniProt Q93009)
inactive: saracatinib -0.087 | sotrastaurin -0.083 | Tubastatin A 0.023 | [1] -0.106 | defactinib -0.104 | rucaparib 0.03 | [2] 0.152 | encorafenib 0.057 | [3] -0.06

UGGT1 (UniProt Q9NYU2)
inactive: saracatinib -0.006 | sotrastaurin -0.034 | Tubastatin A 0.022 | [1] -0.005 | defactinib 0.019 | rucaparib 0.009 | [2] -0.033 | encorafenib 0.017 | [3] -0.002

Reprinted from the results shown (six entries):
USP48 isoform 8 (UniProt Q86UV5)
inactive: saracatinib -0.037 | sotrastaurin -0.403 | Tubastatin A 0.197 | [1] 0.016 | defactinib -0.462 | rucaparib -0.085 | [2] -0.044 | encorafenib 0.065 | [3] -0.081

UCHL5 (UniProt Q9Y5K5)
inactive: saracatinib -0.044 | sotrastaurin -0.057 | Tubastatin A 0.148 | [1] 0.013 | defactinib -0.107 | rucaparib 0.074 | [2] -0.001 | encorafenib 0.091 | [3] -0.028

UBXN10 (UniProt Q96LJ8)
inactive: saracatinib 0.111 | sotrastaurin 0.122 | Tubastatin A 0.036 | [1] -0.152 | defactinib 0.254 | rucaparib -0.05 | [2] -0.049 | encorafenib -0.074 | [3] 0.014

UBLCP1 (UniProt Q8WVY7)
inactive: saracatinib 0.036 | sotrastaurin -0.032 | Tubastatin A 0.147 | [1] 0.027 | defactinib -0.016 | rucaparib -0.068 | [2] -0.038 | encorafenib 0.088 | [3] -0.034

USP7 (UniProt Q93009)
inactive: saracatinib -0.087 | sotrastaurin -0.083 | Tubastatin A 0.023 | [1] -0.106 | defactinib -0.104 | rucaparib 0.03 | [2] 0.152 | encorafenib 0.057 | [3] -0.06

UGGT1 (UniProt Q9NYU2)
inactive: saracatinib -0.006 | sotrastaurin -0.034 | Tubastatin A 0.022 | [1] -0.005 | defactinib 0.019 | rucaparib 0.009 | [2] -0.033 | encorafenib 0.017 | [3] -0.002

More entries:

USP34 (UniProt Q70CQ2)
inactive: saracatinib 0.006 | sotrastaurin -0.102 | Tubastatin A 0.069 | [1] -0.049 | defactinib -0.164 | rucaparib -0.055 | [2] -0.015 | encorafenib 0.08 | [3] 0.002

UHRF1BP1L (UniProt A0JNW5)
inactive: saracatinib -0.01 | sotrastaurin 0 | Tubastatin A 0.031 | [1] -0.051 | defactinib -0.024 | rucaparib -0.052 | [2] 0.05 | encorafenib -0.02 | [3] -0.029

USP9X (UniProt Q93008)
inactive: saracatinib -0.006 | sotrastaurin -0.073 | Tubastatin A -0.014 | [1] -0.022 | defactinib -0.03 | rucaparib 0.032 | [2] -0.003 | encorafenib 0.082 | [3] -0.009

UFD1 isoform 1 (UniProt Q92890)
inactive: saracatinib 0.008 | sotrastaurin 0.005 | Tubastatin A 0.027 | [1] -0.022 | defactinib -0.013 | rucaparib -0.02 | [2] -0.054 | encorafenib -0.004 | [3] 0

USO1 isoform 2 (UniProt O60763)
inactive: saracatinib 0.076 | sotrastaurin -0.028 | Tubastatin A -0.026 | [1] 0.029 | defactinib -0.034 | rucaparib -0.019 | [2] 0.03 | encorafenib 0.022 | [3] -0.003

UBE3D (UniProt Q7Z6J8)
inactive: saracatinib 0.027 | sotrastaurin -0.007 | Tubastatin A -0.043 | [1] -0.058 | defactinib -0.003 | rucaparib 0.161 | [2] -0.064 | encorafenib 0.005 | [3] -0.108

UFM1 (UniProt P61960)
inactive: saracatinib 0.028 | sotrastaurin -0.004 | Tubastatin A 0.097 | [1] 0.026 | defactinib -0.066 | rucaparib -0.119 | [2] -0.013 | encorafenib 0.029 | [3] -0.031

UTP4 (UniProt Q969X6)
inactive: saracatinib 0.05 | sotrastaurin 0.013 | Tubastatin A -0.097 | [1] 0.015 | defactinib 0.178 | rucaparib 0.086 | [2] 0.002 | encorafenib -0.016 | [3] 0.041

UPF3B (UniProt Q9BZI7)
inactive: saracatinib -0.099 | sotrastaurin 0.002 | Tubastatin A 0.114 | [1] 0.045 | defactinib 0.413 | rucaparib 0.286 | [2] 0.035 | encorafenib 0.108 | [3] 0.007

UHRF1BP1 (UniProt Q6BDS2)
inactive: saracatinib 0.011 | sotrastaurin 0.049 | Tubastatin A 0.016 | [1] -0.013 | defactinib -0.064 | rucaparib -0.007 | [2] 0.048 | encorafenib -0.012 | [3] 0.017

UBR2 (UniProt Q8IWV8)
inactive: saracatinib -0.065 | sotrastaurin -0.024 | Tubastatin A 0.098 | [1] -0.014 | defactinib -0.052 | rucaparib -0.012 | [2] 0.145 | encorafenib 0.143 | [3] 0.085

VARS2, A0A0G2JL52
inactive: saracatinib 0.007 | sotrastaurin -0.019 | Tubastatin A -0.026 | [1] -0.019 | defactinib -0.005 | rucaparib 0.02 | [2] 0.012 | encorafenib -0.004 | [3] -0.041

UBXN8 (UniProt O00124)
inactive: saracatinib -0.054 | sotrastaurin 0.027 | Tubastatin A -0.144 | defactinib 0.065 | [2] -0.112 | encorafenib 0.094 | [3] -0.095
active: rucaparib -0.568
